# Results are given in words; binding and its absence hold for the method and conditions named. Binding seen in cells or lysates may run through a third protein. Some entries that bind do so weakly or less than the wild type.
# Amino acid sequences for entries named in this document (tags omitted). Residues count along the entry.
# UniProt Q9UM47, residues 40-2321: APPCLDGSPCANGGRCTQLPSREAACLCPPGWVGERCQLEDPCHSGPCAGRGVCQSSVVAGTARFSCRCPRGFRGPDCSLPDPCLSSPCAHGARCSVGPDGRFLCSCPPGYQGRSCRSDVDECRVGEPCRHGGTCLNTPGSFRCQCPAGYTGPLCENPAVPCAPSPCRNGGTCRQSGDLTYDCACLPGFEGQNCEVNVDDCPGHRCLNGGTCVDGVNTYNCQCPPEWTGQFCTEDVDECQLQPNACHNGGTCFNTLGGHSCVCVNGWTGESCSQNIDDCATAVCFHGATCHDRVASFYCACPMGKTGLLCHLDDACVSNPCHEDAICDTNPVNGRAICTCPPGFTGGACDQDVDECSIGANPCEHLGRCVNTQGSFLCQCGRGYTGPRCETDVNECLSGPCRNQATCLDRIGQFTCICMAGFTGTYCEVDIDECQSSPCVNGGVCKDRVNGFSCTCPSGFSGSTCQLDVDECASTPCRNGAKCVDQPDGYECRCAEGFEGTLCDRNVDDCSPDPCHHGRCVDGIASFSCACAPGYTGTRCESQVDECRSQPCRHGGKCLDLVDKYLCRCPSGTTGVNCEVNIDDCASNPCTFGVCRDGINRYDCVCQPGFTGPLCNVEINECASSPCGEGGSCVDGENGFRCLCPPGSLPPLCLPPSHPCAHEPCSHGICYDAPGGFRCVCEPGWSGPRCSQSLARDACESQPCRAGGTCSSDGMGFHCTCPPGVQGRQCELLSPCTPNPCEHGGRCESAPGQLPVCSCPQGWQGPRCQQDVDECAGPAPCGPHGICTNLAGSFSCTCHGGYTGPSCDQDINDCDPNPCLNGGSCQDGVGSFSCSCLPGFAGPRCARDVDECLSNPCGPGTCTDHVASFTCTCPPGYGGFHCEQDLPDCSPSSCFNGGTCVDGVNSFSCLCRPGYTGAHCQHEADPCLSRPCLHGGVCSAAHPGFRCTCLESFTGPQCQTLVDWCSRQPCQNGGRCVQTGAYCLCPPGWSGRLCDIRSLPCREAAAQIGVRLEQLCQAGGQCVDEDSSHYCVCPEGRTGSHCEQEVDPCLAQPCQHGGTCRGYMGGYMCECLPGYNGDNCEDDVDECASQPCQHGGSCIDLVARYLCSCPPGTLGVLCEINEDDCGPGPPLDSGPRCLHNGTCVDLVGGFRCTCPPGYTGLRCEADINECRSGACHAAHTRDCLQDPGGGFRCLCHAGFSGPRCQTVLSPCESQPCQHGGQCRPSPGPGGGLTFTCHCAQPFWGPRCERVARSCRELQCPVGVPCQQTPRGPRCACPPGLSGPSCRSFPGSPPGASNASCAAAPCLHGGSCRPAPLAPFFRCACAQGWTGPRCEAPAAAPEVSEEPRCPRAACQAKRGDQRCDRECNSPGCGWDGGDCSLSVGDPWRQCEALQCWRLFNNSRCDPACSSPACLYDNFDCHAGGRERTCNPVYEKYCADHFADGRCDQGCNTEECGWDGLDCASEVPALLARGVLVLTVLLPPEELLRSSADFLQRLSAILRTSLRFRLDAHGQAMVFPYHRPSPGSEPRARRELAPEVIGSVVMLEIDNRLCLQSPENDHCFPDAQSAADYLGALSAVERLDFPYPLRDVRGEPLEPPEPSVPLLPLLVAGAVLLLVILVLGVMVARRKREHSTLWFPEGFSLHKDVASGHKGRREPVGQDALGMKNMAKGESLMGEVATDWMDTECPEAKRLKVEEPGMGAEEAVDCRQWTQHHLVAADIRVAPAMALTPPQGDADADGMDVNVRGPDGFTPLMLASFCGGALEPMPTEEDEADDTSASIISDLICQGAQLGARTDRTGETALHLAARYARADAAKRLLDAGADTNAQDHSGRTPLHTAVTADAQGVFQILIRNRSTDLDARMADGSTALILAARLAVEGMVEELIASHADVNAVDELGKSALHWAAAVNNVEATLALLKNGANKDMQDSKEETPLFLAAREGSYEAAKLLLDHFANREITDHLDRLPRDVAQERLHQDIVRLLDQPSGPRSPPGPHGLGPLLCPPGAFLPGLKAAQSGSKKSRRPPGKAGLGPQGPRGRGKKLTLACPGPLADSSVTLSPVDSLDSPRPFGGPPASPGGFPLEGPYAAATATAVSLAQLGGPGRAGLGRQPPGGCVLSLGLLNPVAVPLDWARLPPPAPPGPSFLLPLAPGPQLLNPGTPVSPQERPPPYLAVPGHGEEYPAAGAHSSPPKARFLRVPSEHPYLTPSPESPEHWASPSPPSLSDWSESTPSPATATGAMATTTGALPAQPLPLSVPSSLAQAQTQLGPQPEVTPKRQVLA
# T1: ZIP4 (gene name SLC39A4), a zinc transporter (human (endogenous in PE01 and PE04)) (UniProt Q6P5W5)
# T1 sequence: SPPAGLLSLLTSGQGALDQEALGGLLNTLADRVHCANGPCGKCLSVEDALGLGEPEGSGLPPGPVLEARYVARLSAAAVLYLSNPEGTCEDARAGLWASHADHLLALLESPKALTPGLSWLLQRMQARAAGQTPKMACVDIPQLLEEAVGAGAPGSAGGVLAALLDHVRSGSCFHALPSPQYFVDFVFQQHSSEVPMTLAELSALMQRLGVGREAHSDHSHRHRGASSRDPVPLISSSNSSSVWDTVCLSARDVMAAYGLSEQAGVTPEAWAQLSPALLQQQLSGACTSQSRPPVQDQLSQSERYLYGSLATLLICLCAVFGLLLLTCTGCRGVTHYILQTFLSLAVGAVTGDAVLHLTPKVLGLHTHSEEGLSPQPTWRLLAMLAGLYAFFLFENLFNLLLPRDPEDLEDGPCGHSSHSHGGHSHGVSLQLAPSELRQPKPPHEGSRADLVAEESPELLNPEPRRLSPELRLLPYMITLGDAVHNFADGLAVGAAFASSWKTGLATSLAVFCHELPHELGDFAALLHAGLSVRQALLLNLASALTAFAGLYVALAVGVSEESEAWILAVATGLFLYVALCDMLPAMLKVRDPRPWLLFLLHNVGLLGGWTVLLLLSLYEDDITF
# Columns and labels:
# [1] = target: T1, ZIP4 (gene name SLC39A4), a zinc transporter (human (endogenous in PE01 and PE04)); experiment: co-IP; Pierce Cross-link IP Kit; NOTCH3 antibody or ZIP4 antibody (20625-1-AP) or control IgG bound to beads; endogenous proteins in PE01 and PE04 cell lysates; detected by immunoblotting
# [2] = target: NOTCH3 (human (endogenous in PE01 and PE04)) (UniProt Q9UM47); experiment: as above
Molecule,binding [1],binding [2]
NOTCH3 (from UniProt Q9UM47 40-2321) (receptor),binds,–
"ZIP4 (gene name SLC39A4), a zinc transporter (protein, UniProt Q6P5W5 23-647) SPPAGLLSLLTSGQGALDQEALGGLLNTLADRVHCANGPCGKCLSVEDALGLGEPEGSGLPPGPVLEARYVARLSAAAVLYLSNPEGTCEDARAGLWASHADHLLALLESPKALTPGLSWLLQRMQARAAGQTPKMACVDIPQLLEEAVGAGAPGSAGGVLAALLDHVRSGSCFHALPSPQYFVDFVFQQHSSEVPMTLAELSALMQRLGVGREAHSDHSHRHRGASSRDPVPLISSSNSSSVWDTVCLSARDVMAAYGLSEQAGVTPEAWAQLSPALLQQQLSGACTSQSRPPVQDQLSQSERYLYGSLATLLICLCAVFGLLLLTCTGCRGVTHYILQTFLSLAVGAVTGDAVLHLTPKVLGLHTHSEEGLSPQPTWRLLAMLAGLYAFFLFENLFNLLLPRDPEDLEDGPCGHSSHSHGGHSHGVSLQLAPSELRQPKPPHEGSRADLVAEESPELLNPEPRRLSPELRLLPYMITLGDAVHNFADGLAVGAAFASSWKTGLATSLAVFCHELPHELGDFAALLHAGLSVRQALLLNLASALTAFAGLYVALAVGVSEESEAWILAVATGLFLYVALCDMLPAMLKVRDPRPWLLFLLHNVGLLGGWTVLLLLSLYEDDITF",–,binds
